According to patent US20250283056A1, “MODIFIED O-[…] USEFUL FOR PRODUCTION OF O-METHYLATED PHENOLIC NATURAL PRODUCTS” (The University of Hong Kong, priority 2024, published 2025):
For at least one compound, name, drawing or mass did not settle the structure.

Amino acid sequences for entries named in this document (tags omitted).
UniProt A0A1B6PFV1, entry or part of it E310A: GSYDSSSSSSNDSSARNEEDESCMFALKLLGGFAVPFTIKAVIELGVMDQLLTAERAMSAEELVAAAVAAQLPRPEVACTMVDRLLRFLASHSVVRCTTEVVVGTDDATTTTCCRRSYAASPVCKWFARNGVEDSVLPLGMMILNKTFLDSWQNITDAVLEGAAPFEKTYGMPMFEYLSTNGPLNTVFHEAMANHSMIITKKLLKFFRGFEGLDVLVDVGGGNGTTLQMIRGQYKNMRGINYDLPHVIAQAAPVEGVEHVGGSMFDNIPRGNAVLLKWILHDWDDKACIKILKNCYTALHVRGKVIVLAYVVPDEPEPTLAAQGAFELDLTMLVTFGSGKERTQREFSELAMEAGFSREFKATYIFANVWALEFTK

Molecular target: SbSOMT E310A (Sorghum bicolor, UniProt A0A1B6PFV1, E310A)
Assay type: binding
Details: SbSOMT mutant E310A, ITC
Description: Desired mutations of SbSOMT were introduced into its construct using specific primers (Table 11). Expression constructs were transformed into Rosetta™ (DE3) competent Escherichia coli cells (Novagen, Germany). Protein expression was induced with 0.1 mM Isopropyl-β-thiogalactopyranoside (IPTG) overnight at 16° C. E. coli cells were harvested, resuspended in lysis buffer (20 mM Tris buffer pH 7.9, 300 mM NaCl, 2.5 mM β-mercaptoethanol), and lysed by sonication. Crude proteins were loaded onto a HisTrap HP column (Cytiva, USA) connected to a AKTA pure chromatography system (Cytiva, USA). Column was washed with 15 column volumes of lysis buffer with 50 mM imidazole. Proteins were eluted over a gradient of 50-500 mM imidazole. Eluate fractions with the target OMT were pooled, digested with TEV protease, and simultaneously dialyzed against a low salt buffer (20 mM Tris pH 7.9, 50 mM NaCl, 2.5 mM β-mercaptoethanol) overnight at 4° C. The dialyzed sample was filtered and flowed through HisTrap to remove His-tagged components. The flowthrough was then loaded to HiTrap Q FF columns (Cytiva, USA) over a gradient of 50-1000 mM NaCl. […]
Isothermal titration calorimetry (ITC) assays were conducted with MicroCal iTC200 (Malvern Panalytical, UK). […] Results were analysed based on the 2nd to 20th injections using the Origin (MicroCal Software, USA) and PEAQ-ITC software (Malvern Panalytical, UK).

COc1cc(/C=C/c2ccc(O)cc2)cc(OC)c1 [Pterostilbene, pterostilbene]
Stoichiometry, N: 0.40 ± 0.08
